The whole screen tested about 2,800 compounds, of which fewer than 10 were called active. About 7% were inconclusive and are not listed. The call rests on the fitted dose curve; in most records, active means well fitted inhibition curve with a large enough effect; inconclusive means small, poorly fitted or top-dose-only effect; inactive means no such curve, though single readings can be large or run the other way. The list shows a part of the results.
Molecular target: Metallo-beta-lactamase type 2 (Klebsiella pneumoniae) (UniProt C7C422)
Assay: qHTS to identify inhibitors of the New Delhi Metallo-beta-lactamase (NDM): Nitrocefin screen against the machine-based learning selections. Further: % of control where 0% means no effect.
Conditions: NDM-1 enzyme, nitrocefin hydrolysis, absorbance 485 nm; activity, negative = inhibition: at the top concentration
From the text: Assay Submitter (PI): James Inglese Ph.D., Patricia Dranchak Ph.D., Mahesh Aitha Ph.D. Assay Development and Screening Technology Laboratory (ADST) National Center for Advancing Translational Sciences (NCATS), Rockville, MD National Institute of Health (NIH), Bethesda, Maryland The metallo-beta-lactamases (MBL) are a main antibiotic resistance mechanism evolved by bacteria. There is an urgent clinical need for MBL inhibitors to mitigate this growing threat. To support a machine-based learning study, qHTS has been used to experimentally test inhibitors identified by prediction tools.
PROTOCOL TABLE (as described by Inglese et al., 2007) SEQUENCE No. (e.g., 1, 2, 3, etc.); […] (e.g., enzyme, Incubation, Reagent, etc.); VALUE; DESCRIPTION Primary Screen 1; NDM-1; 4 uL of 3 nM enzyme [2 nM final] in 50 mM HEPES (pH 7.0), 1 uM […], 0.01% Tween20; Use BioRaptr to dispense into two sets of Aurora black, clear bottom high base 1536-well plates 2; Compounds; 23 nL; Use Pin Tool (Wako) to transfer DMSO control and library compounds in DMSO 3; Incubate; >30 min 4a; Reagent; 2 uL of 50 uM nitrocefin [16.7 uM final] to one set of assay plates 4b; Reagent; 2 uL of 150 uM meropenem [50 uM final] to second set of assay plates 5a; Incubate; 15 min 5b; Incubate; 30 min 6a; Detector; Absorbance at 485 nm (bandwidth = 5 nm, 25 flashes/well) on Tecan Infinity 6b; Detector; Absorbance at 300 nm (bandwidth = 5 nm, 25 flashes/well) on Tecan Infinity NOTES (numbers refer to sequence above) 1; Column 1 of each plate received assay buffer without enzyme and columns 2-48 received enzyme for a final assay concentration of 2 nM. 2; Control plate contained DMSO in columns 1, 2, 3, and 4. 3; Compound interaction with enzyme. 4; Nitrocefin and meropenem substrates were prepared in the same assay buffer as step 1 for a final assay concentration of 16.7 uM and 50 uM, respectively, and added to all wells across respective sets of assay plates. 5; Default reader settings were applied for absorbance read at 485 nm (nitrocefin) or 300 nm (meropenem), bandwidth = 5 nm, 25 flashes/well. References: Inglese J, Shamu CE, Guy RK. 2007. Reporting data from high-throughput screening of small-molecule libraries. Nat Chem Biol. doi:10.1038/nchembio0807-438 Yasgar A, Shinn P, Jadhav A, Auld D, Michael S, Zheng W, Austin CP, Inglese J, Simeonov A. 2008. Compound Management for Quantitative High-Throughput Screening. J Lab Autom 13:79 - 89. doi:10.1016/j.jala.2007.12.004

Chains of the proteins cited; added tags and fusions are not shown. Lines headed by an entry give the natural chain unless they say otherwise; changes in a name come on top.
UniProt C7C422: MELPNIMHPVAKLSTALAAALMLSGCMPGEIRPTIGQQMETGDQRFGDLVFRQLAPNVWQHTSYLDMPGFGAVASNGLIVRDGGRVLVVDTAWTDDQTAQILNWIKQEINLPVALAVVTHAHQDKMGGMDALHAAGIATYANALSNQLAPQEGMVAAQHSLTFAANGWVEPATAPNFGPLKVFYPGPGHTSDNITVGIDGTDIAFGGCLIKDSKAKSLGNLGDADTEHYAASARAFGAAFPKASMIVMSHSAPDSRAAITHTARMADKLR

activity, negative = inhibition, inactive:
Cc1ccc2c(C)c(C(=O)N3CC[C@H](O)[C@@H](O)C3)oc2c1 10.4%
CN1CCCN(C[C@@H]2CN(C(=O)c3ccnn3C)C[C@@H]2CO)CC1 -1.01%
O=C(Cc1c[nH]c2ncc(-c3cccnc3)cc12)NC1CC1 -9.07% [at 76.7 µM]
COc1ccc(CNC(=O)CC[C@@H]2CNC(=O)[C@@H]3C[C@H](NCc4ccc(N(C)C)cc4)CN23)cc1 3.36%
Nc1ccc2ncnc(N3CCCCC3)c2c1 8.2%
Cc1nn(-c2ccccn2)c(C)c1[C@@H]1C=C[C@@H](NC(=O)c2ccco2)C1 9.13% [at 57.5 µM]
COc1ccc(CN2CCNc3cc(Nc4ccccc4)ncc3C2)cc1O 8.33% [at 57.5 µM]
O=C1CO[C@H](c2ccc(NC(=O)C3CCOCC3)cc2)[C@@H](CO)N1 2.38% [at 57.5 µM]
O=C(CSc1ccncc1)N1CCN2C(=O)N(Cc3ccccc3)C(=O)[C@H]2C1 6.82% [at 57.5 µM]
COCc1cc(=O)n(CC(=O)Nc2cccc(Cl)c2)c(N2CCOCC2)n1 6.38%
COc1ccc(CN(C)Cc2ccncc2C)c(OCC(O)CN2CCCC2)c1 (stereo not given) 1.27%
COc1ccc(NC(=O)Cn2c(N(C)Cc3ccccc3)nc(C)cc2=O)cc1Cl 5.16%
COc1cc2c(cc1OC)C(C[C@H]1CN(C(=O)c3ccc(N(C)C)cc3)CC[C@H]1CC(=O)O)=NCC2 7.93%
CC(C)CN(C)C(=O)c1cc(-c2cnn(C(C)C)c2)nc2cc(F)ccc12 -1.69%
OCc1ccc(-c2cc(-c3cccnc3)c3cncn3c2)cc1 31.1% [at 57.5 µM]
O=C(c1ccccc1)N1CCC(c2nn(-c3ccccc3)c(=O)[nH]2)CC1 2.66%
COc1ccc2nc3n(c2c1)[C@@H](CNCc1ccccc1)COC3 -1.67% [at 57.5 µM]
O=C1NC[C@@H](CCC(=O)N2CCc3ccccc32)N2C[C@@H](NCc3ccc(CO)o3)C[C@@H]12 -3%
CCCCCC(=O)Nc1nc2c(s1)C[C@@H]1[C@](C)(CO)[C@H](O)CC[C@@]1(C)[C@@H]2CC(=O)NCc1cc(F)cc(F)c1 -16.9%
CN1CCOc2c(C(=O)NCc3cccnc3)cc(-c3ccccc3O)cc21 0.182% [at 57.5 µM]
Cc1ccccc1-c1cnc2n[nH]c(-c3ccccc3)c2n1 15% [at 76.7 µM]
C[S+](=O)([O-])Nc1cccc(Nc2ncc(-c3cccc(F)c3)c3c2OCC3)c1 17.6% [at 57.5 µM]
OC1(CNCc2csc3ccc(Cl)cc23)CNCCOC1 (stereo not given) -2.38%
CS(=O)(=O)N1CCc2ccc(C(=O)NCCN3CCc4ccccc4C3)cc21 -24.1%
O=C(Nc1cccc(C(F)(F)F)c1)c1cnc2c(c1)N(Cc1ccccc1)CCC2 5.71% [at 57.5 µM]
Cc1ccc(C)c(-c2cc(C(=O)N3CCCC3c3nncn3C(C)C)[nH]n2)c1 (stereo not given) 2.36%
COc1ccc(C[C@H](NC(=O)[C@@]2(O)C[C@@H](O)[C@H](O)[C@@H](NC(=O)CS(=O)(=O)c3ccccc3)C2)C(N)=O)cc1 -1.87%
O=C(NC1CCN(c2cc(-c3ccc(F)cc3)[nH]n2)CC1)c1cccc2[nH]ccc12 -6.2%
Cc1nc(CN2CCN(c3ncc(F)c(N(C)C)n3)CC2)cs1 -10.7%
O=C(O)c1cccc(-c2n[nH]c3c2CC(=O)N(CC2CCOCC2)C3)c1 -18% [at 57.5 µM]
C=CCN1CCN(C(=O)[C@@H]2Cc3c[nH]c4cccc(c34)[C@H](CC(C)C)N2)CC1 3.27% [at 57.5 µM]
Cc1ccc2c(c1)N1C(=O)OC[C@@H]1CCN(C(=O)Nc1ccccc1)C2 -1.88% [at 57.5 µM]
CCOCC(=O)N[C@H]1CN(Cc2nc(C)c(C)n2C)C[C@@H]1C(C)C 93.6%
CN(C)c1ccc(C(=O)N2CCN3C(=O)N(Cc4ccccc4)C(=O)[C@H]3C2)cc1 -1.71% [at 57.5 µM]
COc1ccc(CC(=O)N(C)Cc2ccc(F)cc2)cc1 -0.267% [at 57.5 µM]
Cc1ccc(-c2cn3c(n2)CO[C@@H](CNS(=O)(=O)c2cccs2)C3)cc1 0.483% [at 57.5 µM]
COc1ccc(C(=O)NCc2nnc3ccc(-c4ccc(F)cc4)nn23)cc1OC -5.09%
C=CCNC(=O)[C@@H]1Cc2cn(Cc3c(C)noc3C)c3cccc(c23)[C@H](CC(C)C)N1 2.11% [at 57.5 µM]
O=C(Cc1c[nH]c2ncc(-c3cccc(O)c3)cc12)N1CCOCC1 2.11% [at 57.5 µM]
Cc1nc2ccc(C(=O)NCc3cc4n(n3)CCN(C(=O)N(C)C)C4)cc2o1 -2.48%
CCOC(=O)N1CCN(C(=O)C(c2ccccc2C)N(C)C)CC1 (stereo not given) 0.82%
CC(C)(C)c1ccc(NC(=O)O[C@@H]2CO[C@H]3[C@@H]2OC[C@@H]3Nc2nccc(-c3ccccc3)n2)cc1 1.81%
COc1cc2c(cc1CN1C[C@@H]3CC[C@H](C1)N(CC1CCC1)C3=O)OCCO2 -0.667%
CCOCCn1c(=O)[nH]c2cc(C(=O)NCc3cc(=O)[nH]c(C)n3)ccc21 -3.04%
CC1=C[C@@H](CNCc2ccc(C#N)cc2)[C@H](C(C)C)C[C@H]1Cc1nnc(-c2cccnc2)o1 -0.0925%
CN1C(=O)CO[C@H](c2ccc(NC(=O)c3ccc(-c4ccccc4)cc3)cc2)[C@H]1CO -9.65% [at 57.5 µM]
O=C(N[C@H]1CO[C@H]2[C@@H]1OC[C@@H]2n1nnnc1-c1ccc2c(c1)OCO2)c1ccc(C(F)(F)F)cc1 14.8%
COc1ccc(CN2CCOC[C@H](OC)C2)cn1 1.51% [at 76.7 µM]
Cc1ccsc1-c1[nH]nc2ncc(-c3cccc(O)c3)nc12 9.44% [at 57.5 µM]
FC(F)(F)Oc1ccc(-c2cnc([C@@H]3COCCN3Cc3ccncc3)[nH]2)cc1 -1.63% [at 57.5 µM]
N[C@@H](Cc1cnc[nH]1)C(=O)N1CCC2(CC1)CN(CCOc1ccccc1)C(=O)O2 23.4%
CC1(CNCc2ccccc2)COc2ccc(C(=O)Nc3cccnc3)cc2N1 (stereo not given) 0.768% [at 57.5 µM]
Fc1cccc(Nc2cnc3ccc(-c4ccccc4)nn23)c1 -15.4% [at 57.5 µM]
C=CCNC(=O)[C@@H]1Cc2cn(Cc3ccncc3)c3cccc(c23)[C@H](CC(C)C)N1 -1.56% [at 57.5 µM]
CN1CCC(NC(=O)Cc2c[nH]c3ncc(-c4ccccc4)cc23)CC1 19.2% [at 57.5 µM]
O=C(Cc1c[nH]c2ncc(-c3ccncc3)cc12)NCc1cccnc1 7.18% [at 57.5 µM]
CC(C)CCCC1CN(C(=O)c2c(O)cccc2O)CCO1 (stereo not given) -3.01%
O=C(NC1CCCCC1)O[C@@H]1CO[C@H]2[C@@H]1OC[C@@H]2NS(=O)(=O)c1ccc(Cl)cc1 1.63%
OC1(c2csc(CN3CCOCC3)n2)CCN(CC2CCCCC2)CC1 2.57% [at 57.5 µM]
Cc1nc2c(c(-c3ccc(Cl)cc3)n1)CCN(C(=O)C1CC1)CC2 -14.4%

Random excerpt: 3 records from the list, in no set order.
activity, negative = inhibition, inactive:
CC(C)(C)c1ccc(NC(=O)O[C@@H]2CO[C@H]3[C@@H]2OC[C@@H]3Nc2nccc(-c3ccccc3)n2)cc1 1.81%
Cc1ccsc1-c1[nH]nc2ncc(-c3cccc(O)c3)nc12 9.44% [at 57.5 µM]
OCc1ccc(-c2cc(-c3cccnc3)c3cncn3c2)cc1 31.1% [at 57.5 µM]

From PubChem BioAssay AID1794844 (National Center for Advancing Translational Sciences (NCATS), 2023)
